This series deals with Sewage sludge from a municipal sewage treatment plant. The series can be described thus: Anaerobic decomposition of dimethylsilanediol (DMSD) by sewage sludge with nitrate as electron acceptor, 1H-NMR. The text has this: Sewage sludge from a municipal sewage treatment plant was taken off from running operations under oxygen-free conditions (N2-comprising sample vessels). To separate off interfering substrates, the cell mass was resuspended in 5-times the volume of an oxygen-free buffer (50 mmol/l of potassium phosphate pH 6.8) and centrifuged off. Oxygen-free solutions were produced by degassing the solution and purging with gaseous nitrogen.
The operation (resuspending/centrifuging) was repeated 3 times.
The washed oxygen-free cell mass was transferred in the absence of oxygen into shake flasks comprising culture medium (10 g of moist cell mass per 100 ml of medium). For control batches, the sewage sludge was autoclaved and inactivated thereby. Culturing proceeded in a minimal medium (SM1) without the addition of complex nutrients. The culture medium was composed as follows:
As electron acceptor, in addition, 5 g/l of KNO3 were added. As sole carbon source, finally dimethylsilane-diol (water-soluble; molar weight 92 g/l) was added to the medium. The concentration in the batches was 1 mmol/l. Culturing proceeded under anaerobic conditions on orbital shakers at a temperature of 30° C. The total culture time was 11 days. Samples of the culture medium were taken off at regular intervals and analyzed immediately. The samples were likewise taken off under anaerobic conditions (glove box, N2 atmosphere) directly from the shake flasks.
Analysis: In experiments using DMSD as a substrate, the change in concentration of DMSD in the aqueous phase was determined by means of proton magnetic resonance spectroscopy (^1H-NMR). The intense signal at 0.164 ppm is very suitable here. Samples (0.9 ml) from the culture batches were taken off for this directly (via the stopper) from the vessel, admixed with standard (TSP in D2O; TSP=3-(trimethylsilyl)propionic acid-D4 sodium salt) and analyzed in the spectrometer. The DMSD signal can be quantified exactly via the known standard signal).

The results in this text go back to patent US20070178577A1, “Method for effecting the anaerobic biological decomposition of organsiloxanes” (WACKER CHEMIE AG, priority 2004, published 2007).

For `C[Si](C)(O)O` [DMSD, Dimethylsilanediol], the “DMSD” value (Batch sewage sludge, anaerobic, 30° C., incubation time 0 days) is 90 mg/L; the “DMSD” value (Batch sewage sludge, anaerobic, 30° C., incubation time 2 days) worked out at 85 mg/L; the “DMSD” value (Batch sewage sludge, anaerobic, 30° C., incubation time 4 days) worked out at 73 mg/L; the “DMSD” value (Batch sewage sludge, anaerobic, 30° C., incubation time 7 days) turned out to be 64 mg/L; the “DMSD” value (Batch sewage sludge, anaerobic, 30° C., incubation time 11 days) is 55 mg/L; the “DMSD” value (Control batch, inactivated (autoclaved) sewage sludge, incubation time 0 days) was 87 mg/L. Besides, the “DMSD” value was determined as 87 mg/L (Control batch, inactivated (autoclaved) sewage sludge, incubation time 2 days); 86 mg/L (Control batch, inactivated (autoclaved) sewage sludge, incubation time 4 days); 83 mg/L (Control batch, inactivated (autoclaved) sewage sludge, incubation time 7 days); 79 mg/L (Control batch, inactivated (autoclaved) sewage sludge, incubation time 11 days).
